This note sets out measurements from article PMC5703946.

Sequences of proteins named here, by UniProt entry; tags and fusion partners are left off. A change or cut given only in a name is not applied to a line headed by its entry.
UniProt F8QWU9: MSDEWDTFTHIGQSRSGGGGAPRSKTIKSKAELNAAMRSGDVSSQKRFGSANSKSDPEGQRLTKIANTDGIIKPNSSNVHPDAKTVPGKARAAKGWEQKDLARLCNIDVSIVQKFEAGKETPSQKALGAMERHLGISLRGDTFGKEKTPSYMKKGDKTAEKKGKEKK

These are yes or no findings as the source states them, for the method shown. Binding seen in cells or lysates may run through a third protein. Binding can be weak; no strength is given. Tags and fused reporters may be left off the sequences shown.

This assay concerns the target T1, His-yTBP (yeast TATA-box-binding protein) (S. cerevisiae) (UniProt P13393).
T1 sequence: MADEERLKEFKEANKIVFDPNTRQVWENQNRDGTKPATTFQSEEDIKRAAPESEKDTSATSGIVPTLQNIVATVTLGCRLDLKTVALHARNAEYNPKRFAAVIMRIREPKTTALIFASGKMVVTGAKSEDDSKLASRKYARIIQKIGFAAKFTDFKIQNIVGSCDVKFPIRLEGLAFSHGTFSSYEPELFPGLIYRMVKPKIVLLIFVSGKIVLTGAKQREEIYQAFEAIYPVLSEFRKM
Nature of the assay: pull-down; His-yTBP held on Ni-NTA agarose beads (from soluble E. coli lysate, washed three times); equal amounts of purified GST-MBF1 proteins or purified GST incubated with the beads for 4 h at 4 °C; beads washed three times; detected by immunoblot (Wes) with anti-His and anti-GST antibodies; both purified. On the technique in general: Immunoblotting shows a protein as a band on a membrane.

In the case of GST-EpMBF1^K114D (Endocarpon pusillum), the binding entry is “binds”.

In the case of “GST-EpMBF1 (Endocarpon pusillum multiprotein-bridging factor 1) (from UniProt F8QWU9)”, the binding entry is given as “binds”.
